Experiment: RRT study: LC-MS/MS urinary proteomics, AKI after cardiac surgery, RRT vs No RRT
Parameters: species or system human
Conditions: for Mean No RRT / Mean RRT: urine; for Mean No RRT: AKI patients who did not require RRT (n=6); for Mean RRT: AKI patients who required RRT (n=6)
[1] = direction of urinary abundance, patients who did vs did not require RRT/dialysis
[2] = patients who did vs did not require RRT/dialysis, read with the Up or Down column
[3] = direction of differential abundance, patients who did vs did not require RRT/dialysis
[4] = patients who did vs did not require RRT/dialysis
[5] = RRT vs No RRT, positive = elevated in RRT group

With Fatty acid-binding protein, epidermal as the substance, how does the “Up or Down” value [1] read?
The value was “Up”.

For Haptoglobin, which “Up or Down” value [1] is on record?
Its value is “Up”.

What about the “Mean Fold Change” value [2] of the same substance?
Its value is 1.16.

For Hemoglobin subunit beta, which “Up or Down” value [1] is on record?
Its value is “Up”.

And the “Mean Fold Change” value [2]?
Its value is 2.992.

With Plasma protease C1 inhibitor as the substance, how does the “Up or Down” value [1] read?
The value was “Up”.

What about the “Mean Fold Change” value [2] of the same substance?
Its value is 5.904.

What does the source list for Complement component C7?
Up or Down [1]: Up; Mean Fold Change [2]: 5.992

What does the source list for Fatty acid-binding protein, liver?
Up or Down [1]: Up; Mean Fold Change [2]: 41.63

What does the source list for Hemoglobin subunit delta?
Up or Down [1]: Up; Mean Fold Change [2]: 3.555

With Alpha-hemoglobin-stabilizing protein as the substance, how does the “Up or Down” value [1] read?
The value was “Up”.

With Extracellular sulfatase Sulf-2 as the substance, how does the “Up or Down” value [3] read?
Its value is “Down”.

And the “Mean Fold Change” value [4]?
Its value is 3.083.

What does the source list for Dipeptidyl peptidase 1?
Up or Down [3]: Down; Mean Fold Change [4]: 1.102

Which “Up or Down” value [3] does the source give for “Low affinity immunoglobulin gamma Fc region receptor III-A” here?
Its value is “Down”.

And the “Mean Fold Change” value [4]?
Its value is 6.36.

With “Superoxide diamutase [Cu—Zn]: urinary protein, Uniprot P00441” as the substance, how does the “Mean Fold Change” value [5] read?
Its value is 2.367.

And the “Up or Down” value [1]?
The value was “Up”.

What about the “Mean Fold Change” value [2] of the same substance?
The value was 4.733.

And the “Mean No RRT” value?
Its value is 10.10 normalized spectral counts.

And the “Mean RRT” value?
Its value is 23.91 normalized spectral counts.

Which results are given for Agrin?
Up or Down [3]: Down; Mean Fold Change [4]: 1.856

For Apolipoprotein D, which “Up or Down” value [1] is on record?
The value was “Up”.

What about the “Mean Fold Change” value [2] of the same substance?
Its value is 1.403.

For Olfactomedin-4, which “Up or Down” value [3] is on record?
Its value is “Down”.

What about the “Mean Fold Change” value [4] of the same substance?
Its value is 1.426.

With “Latent-transforming growth factor beta-binding protein 1” as the substance, how does the “Up or Down” value [1] read?
The value was “Up”.

And the “Mean Fold Change” value [2]?
The value was 1.056.

For “Apolipoprotein A-1: urinary protein, Uniprot P02647”, which “Mean Fold Change” value [5] is on record?
Its value is 8.529.

What about the “Mean No RRT” value of the same substance?
The value was 2.39 normalized spectral counts.

And the “Mean RRT” value?
The value was 20.36 normalized spectral counts.

Which “Up or Down” value [3] does the source give for Tenascin-X here?
Its value is “Down”.

And the “Mean Fold Change” value [4]?
Its value is 1.027.

With Lysosomal acid phosphatase as the substance, how does the “Up or Down” value [3] read?
The value was “Down”.

What does the source list for “Pancreatic secretory trypsin inhibitor (DSLGREAKCYNELNGCTKIYDPVCGTDGNTYPNECVLCFENRKRQTSILIQKSGPC; UniProt P00995 24-79, looked up)”?
Up or Down [1]: Up; Mean Fold Change [2]: 7.234

For Pappalysin-2, which “Up or Down” value [3] is on record?
Its value is “Down”.

What about the “Mean Fold Change” value [4] of the same substance?
The value was 1.573.

Which “Up or Down” value [1] does the source give for “Immunoglobulin lambda-like polypeptide 5” here?
Its value is “Up”.

What about the “Mean Fold Change” value [2] of the same substance?
The value was 1.364.

Which “Up or Down” value [3] does the source give for Immunoglobulin superfamily member 8 here?
Its value is “Down”.

What about the “Mean Fold Change” value [4] of the same substance?
Its value is 7.826.

For Alpha-enolase, which “Up or Down” value [3] is on record?
Its value is “Down”.

And the “Mean Fold Change” value [4]?
The value was 1.23.

Which “Up or Down” value [1] does the source give for Thioredoxin domain-containing protein 5 here?
The value was “Up”.

With “Deleted in malignant brain tumors 1 protein” as the substance, how does the “Up or Down” value [1] read?
Its value is “Up”.

For Mucin-5B, which “Up or Down” value [1] is on record?
Its value is “Up”.

Which “Up or Down” value [1] does the source give for “Tyrosine-protein phosphatase non-receptor type substrate 1” here?
The value was “Up”.

What about the “Mean Fold Change” value [2] of the same substance?
The value was 2.068.

Which “Up or Down” value [1] does the source give for Complement component C9 here?
The value was “Up”.

Which “Up or Down” value [1] does the source give for C-reactive protein here?
The value was “Up”.

And the “Mean Fold Change” value [2]?
The value was 17.78.

Which “Up or Down” value [3] does the source give for “Trefoil factor 1 (EAQTETCTVAPRERQNCGFPGVTPSQCANKGCCFDDTVRGVPWCFYPNTIDVPPEEECEF; UniProt P04155 25-84, looked up)” here?
The value was “Down”.

And the “Mean Fold Change” value [4]?
The value was 1.71.

Which “Up or Down” value [1] does the source give for Fibrinogen gamma chain here?
Its value is “Up”.

And the “Mean Fold Change” value [2]?
Its value is 3.638.

Which “Up or Down” value [1] does the source give for Ig kappa chain V-I region EU here?
Its value is “Up”.

What about the “Mean Fold Change” value [2] of the same substance?
The value was 1.779.

With CD27 antigen as the substance, how does the “Up or Down” value [3] read?
Its value is “Down”.

And the “Mean Fold Change” value [4]?
The value was 2.179.

Which “Up or Down” value [3] does the source give for Ig kappa chain V-III region CLL here?
The value was “Down”.

And the “Mean Fold Change” value [4]?
Its value is 1.423.

Which “Up or Down” value [1] does the source give for Alpha-1B-glycoprotein here?
Its value is “Up”.

And the “Mean Fold Change” value [2]?
The value was 3.82.
